# Results are given in words; binding and its absence hold for the method and conditions named. Some results given as binding are weak or reduced against the parent protein; the word gives no strength.
# T1: WT CTCF (UniProt P49711)
# T1 sequence: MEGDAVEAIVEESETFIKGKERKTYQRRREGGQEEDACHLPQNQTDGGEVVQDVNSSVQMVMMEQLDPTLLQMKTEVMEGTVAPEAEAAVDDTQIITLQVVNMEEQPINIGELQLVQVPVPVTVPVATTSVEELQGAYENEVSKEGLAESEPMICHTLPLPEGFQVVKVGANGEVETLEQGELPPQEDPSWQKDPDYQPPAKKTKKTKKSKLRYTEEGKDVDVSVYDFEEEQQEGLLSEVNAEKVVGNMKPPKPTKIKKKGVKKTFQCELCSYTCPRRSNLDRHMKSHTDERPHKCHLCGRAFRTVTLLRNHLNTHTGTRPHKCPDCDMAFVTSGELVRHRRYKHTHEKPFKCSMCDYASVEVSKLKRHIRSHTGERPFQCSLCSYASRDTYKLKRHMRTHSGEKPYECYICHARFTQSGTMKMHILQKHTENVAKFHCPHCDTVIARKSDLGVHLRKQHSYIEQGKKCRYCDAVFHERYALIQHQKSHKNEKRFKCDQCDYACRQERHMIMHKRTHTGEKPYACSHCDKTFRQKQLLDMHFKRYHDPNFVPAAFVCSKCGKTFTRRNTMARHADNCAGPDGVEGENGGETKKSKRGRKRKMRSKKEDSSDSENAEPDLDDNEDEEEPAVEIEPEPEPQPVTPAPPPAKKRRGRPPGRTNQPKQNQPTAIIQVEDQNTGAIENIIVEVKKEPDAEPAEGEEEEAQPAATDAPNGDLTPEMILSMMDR
# B1: PDS5A (protein, UniProt Q29RF7 1-1337)
# chain: MDFTAQPKPATALCGVVSADGKIAYPPGVKEITDKITTDEMIKRLKMVVKTFMDMDQDSEDEKQQYLPLALHLASEFFLRNPNKDVRLLVACCLADIFRIYAPEAPYTSHDKLKDIFLFITRQLKGLEDTKSPQFNRYFYLLENLAWVKSYNICFELEDCNEIFIQLFRTLFSVINNSHNKKVQMHMLDLMSSIIMEGDGVTQELLDSILINLIPAHKNLNKQSFDLAKVLLKRTVQTIEACIANFFNQVLVLGRSSVSDLSEHVFDLIQELFAIDPHLLLSVMPQLEFKLKSNDGEERLAVVRLLAKLFGSKDSDLATQNRPLWQCFLGRFNDIHVPVRLESVKFASHCLMNHPDLAKDLTEYLKVRSHDPEEAIRHDVIVTIITAAKRDLALVNDQLLGFVRERTLDKRWRVRKEAMMGLAQLYKKYCLHGEAGKEAAEKVSWIKDKLLHIYYQNSIDDKLLVEKIFAQYLVPHNLETEERMKCLYYLYASLDPNAVKALNEMWKCQNMLRSHVRELLDLHKQPTSEANCSAMFGKLMTIAKNLPDPGKAQDFVKKFNQVLGDDEKLRSQLELLISPTCSCKQADICVREIARKLANPKQPTNPFLEMVKFLLERIAPVHIDSEAISALVKLMNKSIEGTADDEEEGVSPDTAIRSGLELLKVLSFTHPTSFHSAETYESLLQCLRMEDDKVAEAAIQIFRNTGHKIETDLPQIRSTLIPILHQKAKRGTPHQAKQAVHCIHAIFTNKEVQLAQIFEPLSRSLNADVPEQLITPLVSLGHISMLAPDQFASPMKSVVANFIVKDLLMNDRSTGEKNGKLWSPDEEVSPEVLAKVQAIKLLVRWLLGMKNNQSKSANSTLRLLSAMLVSEGDLTEQKRISKSDMSRLRLAAGSAIMKLAQEPCYHEIITPEQFQLCALVINDECYQVRQIFAQKLHKALVKLLLPLEYMAIFALCAKDPVKERRAHARQCLLKNISIRREYIKQNPMATEKLLSLLPEYVVPYMIHLLAHDPDFTRSQDVDQLRDIKECLWFMLEVLMTKNENNSHAFMKKMAENIKLTRDAQSPDESKTNEKLYTVCDVALCVINSKSALCNADSPKDPVLPMKFFTQPEKDFCNDKSYISEETRVLLLTGKPKPAGVLGAVNKPLSATGRKPYVRSTGTETGSNINVNSELNPSTGNRSREQSSEAAETGVSENEENPVRIISVTPVKNIDPVKNKEINSDQATQGNISSDRGKKRTVTAAGAENIQQKTDEKVDESGPPAPSKPRRGRRPKSESQGNATKNDDLNKPINKGRKRAAVGQESPGGLEAGNAKAPKLQDLAKKAAPAERQIDLQR
# Target: T1, WT CTCF
# Assay: atomic force microscopy; PDS5A position imaged on a symmetric DNA substrate containing 2 CTCF consensus motifs; position as distance from the nearest CTCF binding site; both purified
binder,measurement,value
B1,binding,binds

# Source: paper doi:10.1101/2025.11.25.690553
